{
  "source": "PubChem BioAssay AID504434",
  "about": "(National Center for Advancing Translational Sciences (NCATS), 2011)",
  "note": "Several values for one entry are separate records, joined by “and”; a condition that tells them apart may be missing. Equal entries are not always repeated. Activity calls are given as the source filed them. Calls come from the whole dose curve; as a rule, active = well fitted curve in the direction sought with a large enough effect; inconclusive = small, poorly fitted or top-dose-only effect, or effect the other way, or another doubt; inactive = no such curve, though single readings can be large or run the other way.",
  "data": [
    {"experiment": "Secondary Assay for lipid storage modulators: AML12 cell LDSA assay for probe SAR", "settings": "AML12 lipid droplet accumulation, BODIPY 493/503 imaging, oleate; series mostly up to 46.1 µM; activity change, negative = inhibition: at the top concentration", "description": "NIH Molecular Libraries Probe Production Centers Network [MLPCN] NIH Chemical Genomics Center [NCGC] MLPCN Grant: 1 R03 MH085686-01 Assay Submitter (PI): Beller, Mathias; Max-Planck-Institut fur Biophysikalische Chemie NCGC Assay Overview: Storing lipids as a reservoir for energy or the anabolism of elementary metabolites is a common feature of probably all cells and is conserved from bacteria to humans. The universal cellular lipid storage organelle is the so-called lipid storage droplet (LD). Although ubiquitous, LDs share a simple structure composed of a hydrophobic core that harbors the storage lipids, which is shielded by a droplet-specific phospholipid monolayer to which proteins are attached. The current model of LD biogenesis involves an incorporation of the lipid core into the membrane leaflets of the endoplasmic reticulum (ER) followed by a subsequent budding-like maturation of a LD, which ultimately pinches off. Once released, LD volume can increase by localized lipogenesis or fusion of existing droplet. Storage lipids are re-mobilized enzymatically by lipase activity. Lipase regulation in the adipocyte is heavily studied and involves multiple components including catecholamine signaling, the LD-associated proteins Perilipin and comparative gene identification (CGI-58) and at least two lipases named hormone sensitive lipase (HSL) and adipocyte triglyceride lipase (ATGL). LD regulation outside of the adipocyte is poorly understood and only few components are known. However, there is an urgent need to learn more about ectopic fat depots as mislocalized storage of lipids, for example in the liver or muscle, is an eminent health problem associated with insulin resistance or the metabolic syndrome.\nNCGC Assay Protocol Summary: The assay was performed with AML12 cells, using an oleic acid feeding protocol similar to the S3 assay. We dispensed 4 uL of cells to give 700 cells/well into Greiner bio-one 1,536-well plates (black walled, clear bottom). Triacsin C (Sigma-Aldrich T-4540), an inhibitor of long-chain fatty acyl CoA synthetase that blocks synthesis of triglycerides, was used as a positive control for lipid under-storage using a final concentration of 20 uM. The orexin antagonist, SB408124 - previously identified to stimulate lipid over-storage, was used as a positive control for lipid over-storage using a final concentration of 20 uM. A total of 23 nL of compound solution of different concentrations were transferred to the assay plates using a Kalypsys pin tool equipped with a 1,536-pin array containing 10-nL slotted pins (FP1S10, 0.457-mm diameter, 50.8 mm long; V&P Scientific). One microliter of oleic acid was added (400 uM final concentration), and the plate was lidded with stainless steel rubber gasket lined lids containing pinholes. After 18-24 h incubation at […] and 95% humidity, 4 uL of the dyes BODIPY 493/503 (Molecular Probes) and the Cell Tracker Red CMTPX dye (Molecular Probes) were added to the wells to stain lipid droplets and enumerate cell number, respectively. Fluorescence was detected by excitation of the fluorophores with a 488-nm laser on an Acumen Explorer (TTP Lab Tech). The total intensity in channel 2 (500-530 nm) reflected lipid droplet accumulation. Cells were detected using channel 3 (575-640 nm) with 5-um width and 100-um depth filters. The ratio of the number of objects in PMT channel 2 over the number of objects in PMT channel 3 was also calculated. Percent activity was computed relative to an internal control (100% inhibited lipid droplet deposition due to the presence of 20 uM Triacsin C), which was added to 32 wells/plate.", "values": [
      {"compound": "Cc1sc(NC(=O)Cc2cccs2)nc1-c1ccccc1", "activity change, negative = inhibition": "inactive: -27.1%"},
      {"compound": "O=C(Cc1cccs1)Nc1nc(-c2ccc3c(c2)CCC3)cs1", "activity change, negative = inhibition": "inactive: 12.9%"},
      {"compound": "CCOc1ccc(CCNC(=O)c2cc3sccc3n2Cc2ccccc2)cc1OCC", "Potency": "inconclusive: 56 nM [falling, full curve]"},
      {"compound": "CCOC(=O)C1CCN(C(=O)C(C)(C)NC(=O)Nc2ccc(C#N)cc2)CC1", "Potency": "inconclusive: 705 nM [falling, full curve, poor fit]"},
      {"compound": "CN(C)CC(=O)NC1CCCc2c1cnn2-c1ccc(F)cc1F", "note": "(stereo not given)", "activity change, negative = inhibition": "inactive: 5.26%"},
      {"compound": "COc1ccc(CCNC(=O)c2cc3sccc3n2Cc2ccccc2)cc1OC", "Potency": "inconclusive: 3530 nM [falling, full curve, poor fit]"},
      {"compound": "O=C(NC1CCCc2c1cnn2-c1ccccc1F)c1cccc2nccnc12", "note": "(stereo not given)", "Potency": "inconclusive: 10900 nM [falling, partial curve, poor fit]"},
      {"compound": "O=C(NC1CCCc2c1cnn2-c1ccc(F)cc1F)c1c(F)cccc1Cl", "note": "(stereo not given)", "activity change, negative = inhibition": "inactive: 0%"},
      {"compound": "CCOC(=O)C1CCN(C(=O)C(C)(C)NC(=O)Nc2ccc(F)c(F)c2)CC1", "Potency": "inconclusive: 2230 nM [falling, partial curve]"},
      {"compound": "CCc1sc(NC(=O)Cc2cccs2)nc1-c1ccccc1", "Potency": "inconclusive: 3150 nM [falling, full curve, poor fit]"},
      {"compound": "CC(C)(NC(=O)Nc1ccccc1Cl)C(=O)N1CCC(C(=O)O)CC1", "Potency": "inconclusive: 31500 nM [falling, partial curve, poor fit]"},
      {"compound": "COCCn1c(-c2ccc(C)cc2)cnc1SCC(=O)Nc1nc(C)cs1", "activity change, negative = inhibition": "inactive: -34.2%"},
      {"compound": "CCOC(=O)C1CCN(C(=O)C(C)(C)NC(=O)Nc2ccc3c(c2)CCC3)CC1", "Potency": "inconclusive: 28.1 nM [falling, full curve, poor fit]"},
      {"compound": "COc1ccc(-c2cnc(SCC(=O)Nc3nc(C)cs3)n2Cc2ccco2)cc1", "activity change, negative = inhibition": "inactive: -16.5% [at 30.7 µM]"},
      {"compound": "CC(C)(C)OC(=O)NCCOCCOCCOCCn1ncc2c1CCCC2NC(=O)c1ccccn1", "note": "(stereo not given)", "Potency": "inconclusive: 3.1 nM [falling, full curve, poor fit]"},
      {"compound": "CCCn1c(-c2ccc(OC)cc2)cnc1SCC(=O)Nc1nc(C)c(C)s1", "Potency": "inconclusive: 12.5 nM [falling, full curve, poor fit]"},
      {"compound": "O=C(NC1CCCc2c1cnn2-c1ccc(F)cc1F)c1ccc2cc[nH]c2c1", "note": "(stereo not given)", "Potency": "inconclusive: 24400 nM [falling, single point]"},
      {"compound": "COc1cccc(-n2ncc3c2CCCC3NC(=O)c2ccccn2)c1", "note": "(stereo not given)", "Potency": "active: 44.5 nM [inconclusive]"},
      {"compound": "CCOc1ccc(CCNC(=O)c2cc3sccc3n2CC)cc1OCC", "Potency": "inconclusive: 177 nM [falling, full curve, poor fit]"},
      {"compound": "CCOC(=O)C1CCN(C(=O)C(C)(C)NC(=O)Nc2ccc(OC)c(Cl)c2)CC1", "activity change, negative = inhibition": "inactive: -44.8%"},
      {"compound": "COc1ccc(-n2ncc3c2CCCC3NC(=O)c2cnc(C)cn2)cc1", "note": "(stereo not given)", "Potency": "inconclusive: 141 nM [falling, full curve]"},
      {"compound": "O=C(NC1CCCc2c1cnn2-c1ccc(F)cc1F)c1ccc(C(=O)c2ccccc2)cc1", "note": "(stereo not given)", "Potency": "inconclusive: 31500 nM [falling, partial curve, poor fit]"},
      {"compound": "CCOC(=O)C1CCN(C(=O)C(C)(C)NC(=O)Nc2ccccc2Cl)CC1", "Potency": "inconclusive: 1250 nM [falling, full curve, poor fit]"},
      {"compound": "CCOC(=O)C1CCN(C(=O)C2(NC(=O)Nc3ccc(F)cc3F)CCCCC2)CC1", "Potency": "inconclusive: 1250 nM [falling, full curve]"},
      {"compound": "CCOC(=O)C1CCN(C(=O)C(C)(C)NC(=O)Nc2cccc(C(=O)OC)c2)CC1", "activity change, negative = inhibition": "inactive: -29.2%"},
      {"compound": "COc1ccc(Cl)cc1NC(=S)N1CCN(c2ccccn2)CC1", "Potency": "inconclusive: 888 nM [falling, full curve, poor fit]"},
      {"compound": "O=C(NC1CCCc2c1cnn2-c1ccc(F)cc1F)c1cnccn1", "note": "(stereo not given)", "Potency": "inconclusive: 19900 nM [activator, partial curve, poor fit]"},
      {"compound": "CCOC(=O)C1CCN(C(C)C(=O)NC(=O)NC2CCCCC2)CC1", "note": "(stereo not given)", "Potency": "inconclusive: 628 nM [falling, full curve, poor fit]"},
      {"compound": "CCOc1ccc(CCNC(=O)c2cc3sccc3n2Cc2cccc(C)c2)cc1OCC", "Potency": "inconclusive: 11.2 nM [falling, full curve, poor fit]"},
      {"compound": "COc1ccc(Cl)cc1NC(=S)N1CCN(c2ccc(F)cc2)CC1", "activity change, negative = inhibition": "inactive: -21.4%"},
      {"compound": "CCOc1ccc(CCNC(=O)c2cc3sc(Cl)cc3n2CC)cc1OCC", "Potency": "inconclusive: 8880 nM [falling, full curve, poor fit]"},
      {"compound": "O=C(NC1CCCc2c1cnn2-c1ccc(F)cc1F)C1CCCCN1", "note": "(stereo not given)", "Potency": "inconclusive: 353 nM [falling, full curve, poor fit]"},
      {"compound": "CCOC(=O)C1CCN(C(=O)C(C)(C)NC(=O)Nc2ccc3sccc3c2)CC1", "activity change, negative = inhibition": "inactive: -34.8%"},
      {"compound": "CC(C)(C)OC(=O)NC1CCCc2c1cnn2-c1ccc(F)cc1F", "note": "(stereo not given)", "Potency": "inconclusive: 35300 nM [activator, single point]"},
      {"compound": "O=C(NC1CCCc2c1cnn2-c1ccc(F)cc1F)c1ccc[n+]([O-])c1", "note": "(stereo not given)", "Potency": "inconclusive: 35.3 nM [falling, full curve, poor fit]"},
      {"compound": "O=C(Cc1ccccc1)NC1CCCc2c1cnn2-c1ccc(F)cc1F", "note": "(stereo not given)", "Potency": "inconclusive: 125 nM [falling, full curve, poor fit]"},
      {"compound": "CCOC(=O)C1CCN(C(=O)C2(NC(=O)NCc3ccccc3)CCCCC2)CC1", "Potency": "inconclusive: 35.3 nM [falling, full curve, poor fit]"},
      {"compound": "O=C(NC1CCCc2c1cnn2-c1ccc(F)cc1F)c1ccccn1", "note": "(stereo not given)", "Potency": "inconclusive: 315 nM [falling, full curve, poor fit] and inconclusive: 8.9 nM [falling, full curve, poor fit] and inconclusive: 888 nM [falling, full curve, poor fit]"},
      {"compound": "CCn1c(C(=O)NCCc2ccc(OC)cc2)cc2sccc21", "activity change, negative = inhibition": "inactive: -5.26%"},
      {"compound": "COc1ccc(Cl)cc1NC(=S)N1CCN(c2cccc(Cl)c2)CC1", "Potency": "inconclusive: 35300 nM [falling, single point]"}
    ]}
  ]
}
